From paper doi:10.1101/2025.06.18.660405 (bioRxiv, 2025) come the findings set out here.

In one assay the target is T1, GST-GAR1 (human) (UniProt Q9NY12).
T1 sequence: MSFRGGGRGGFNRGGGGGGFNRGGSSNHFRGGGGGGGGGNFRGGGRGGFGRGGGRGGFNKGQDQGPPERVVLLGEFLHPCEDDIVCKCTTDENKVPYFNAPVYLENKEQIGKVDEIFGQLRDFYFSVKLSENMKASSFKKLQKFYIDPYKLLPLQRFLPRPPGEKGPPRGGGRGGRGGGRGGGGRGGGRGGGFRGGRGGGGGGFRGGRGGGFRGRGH
As to the kind of experiment: pull-down.

The next assay has as its target MBP-FBLΔIDR (human). Kind of assay: pull-down.

No constants are given. Whether binding was seen depends on the method and setting. Tags and fused reporters may be left off the sequences shown.

On to “MBP-FBLΔIDR (human) (domain or fragment)”, for which, in the assay with GST-GAR1 (human), the binding result is listed as “no binding”.

B1: GST-GAR1 (natural protein, human, UniProt Q9NY12 1-217, looked up)
chain: T1 sequence
On to B1, for which the binding entry in the assay with MBP-FBLΔIDR (human) was “no binding”.
